Measurements published in the supplement of paper PMC5770031.
Where “and” joins values, the source holds several entries; their conditions need not be identical. Identical values can stand only once. The list shows a part of the results. Single values are uncertain here, since repeats match poorly.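 Flies heterozygous for the ATM8 allele over a balancer chromosome carrying normal ATM were mated with each other on treated food. Parents laid eggs for 5–6 days and the young then developed for about 12 days, so both parents and larvae ate the compound. The read-out is the share of all emerged adults that carry two ATM8 copies, compared with 2% DMSO control vials. The paper called compounds neutral at 10–20% such offspring, harmful below 10%, and helpful above 20%.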

Each compound was assayed on Drosophila melanogaster ATM8 (temperature-sensitive ATM allele) (assay: fraction of eclosed F1 progeny that are homozygous ATM8 (rescue of developmental lethality); higher = more rescue of ATM8 developmental lethality; extreme values may be limits of the assay). Conditions: compound concentration applied to food 0.2 mM; 21 °C.

SMILES	fraction of eclosed F1 progeny that are homozygous ATM8
NCC(O)c1ccc(O)cc1 (stereo unspecified)	0.236
CC(=O)Nc1ccc(S(=O)(=O)c2ccc(NC(C)=O)cc2)cc1	0.232
O=C(O)c1ccccc1Nc1cccc(C(F)(F)F)c1	0
OCCc1ccccc1	0.176
Clc1ccc(C(c2ccccc2Cl)C(Cl)Cl)cc1 (stereo unspecified)	0.139
O=C1O[C@H]([C@@H](O)CO)C(O)=C1O	0.24
O=[N+]([O-])c1ccc(O)c2ncccc12	0.109
NNC(=O)c1ccncc1.Nc1ccc(C(=O)O)c(O)c1	0.0588
CC(O)(CC(=O)O)CC(=O)O	0.26
CCCc1nn(C)c2c(=O)[nH]c(-c3cc(S(=O)(=O)N4CCN(C)CC4)ccc3OCC)nc12	0
C[C@@H]1CN(c2c(F)c(F)c3c(=O)c(C(=O)O)cn(C4CC4)c3c2F)C[C@H](C)N1	0.259
CCCCS(=N)(=O)CCC(N)C(=O)O (stereo unspecified)	0.211
CCOC(=O)CC(=O)N1CCSC1COc1ccccc1OC (stereo unspecified)	0.121
CC(=O)Oc1ccc(C(c2ccc(OC(C)=O)cc2)c2ccccn2)cc1	0.174
CCc1nn(CCCN2CCN(c3cccc(Cl)c3)CC2)c(=O)n1CCOc1ccccc1	0.121
Cc1ccc(/N=C/N(C)/C=N/c2ccc(C)cc2C)c(C)c1	0.18
O=c1c2ccccc2[se]n1-c1ccccc1	0.105
O=S(=O)(c1cccc2cnccc12)N1CCCNCC1	0.05
c1ccc2c(c1)Nc1ccccc1S2	0.103
CCCNC(C)(C)COC(=O)c1ccccc1	0.0864
C[C@]12CC[C@H]3[C@@H](CCC4=CC(=O)CC[C@@]43C)[C@@H]1CC[C@@H]2O	0.111
C=C[C@@]1(C)CC(=O)[C@@]2(O)[C@](C)(O1)[C@@H](O)[C@@H](O)C1C(C)(C)CC[C@H](O)[C@@]12C (stereo partly specified)	0.3
NC1CCN(c2c(F)cc3c(=O)c(C(=O)O)cn(C4CC4)c3c2Cl)C1 (stereo unspecified)	0.0625

SMILES	fraction of eclosed F1 progeny that are homozygous ATM8
CC(=O)Nc1ccc(OC(C)=O)cc1	0.128
NC[C@@H]1O[C@H](O[C@H]2[C@@H](O)[C@H](O[C@@H]3[C@@H](O)[C@H](N)C[C@H](N)[C@H]3O[C@H]3O[C@H](CN)[C@@H](O)[C@H](O)[C@H]3N)O[C@@H]2CO)[C@H](N)[C@@H](O)[C@@H]1O	0.18
CCC1(C)CC(=O)NC1=O (stereo unspecified)	0.326
NC(Cc1ccc(Cl)cc1)C(=O)O (racemic)	0.128
CC(NCCc1ccc(O)cc1)C(O)c1ccc(O)cc1 (stereo unspecified)	0.0857
C[C@]12CCC(=O)C[C@@H]1CC[C@@H]1[C@@H]2CC[C@]2(C)C(=O)CC[C@@H]12 [5alpha-ANDROSTAN-3,17-DIONE]	0.125
O=C(NC(Cc1cc(=O)[nH]c2ccccc12)C(=O)O)c1ccc(Cl)cc1 (stereo unspecified)	0.222
COc1cc(O)cc(OC)c1OC	0.0294
COC(=O)/C=C/C(=O)OC	0.143
COC(=O)[C@H]1[C@H]2C[C@H]3c4[nH]c5cc(OC)ccc5c4CCN3C[C@H]2C[C@@H](OC(=O)c2cc(OC)c(OC)c(OC)c2)[C@@H]1OC	0.146
C[N+](C)(C)CCOC(N)=O	0.129
CC(C)(C)NC[C@H](O)COc1cccc2c1CCCC2=O	0.286
CCOC(=O)C1=C(C)NC(C)=C(C(=O)OC)C1c1cccc(Cl)c1Cl (stereo unspecified)	0.145
C[C@]12CC[C@H](O)C[C@H]1CC[C@@H]1[C@@H]2CC[C@]2(C)[C@@H](C3=CC(=O)OC3)[C@@H](O)C[C@]12O	0.093
CC(=O)O[C@H]1C[C@@H]2CC[C@@H]3[C@H](CC[C@@]4(C)[C@H]3C[C@H]([N+]3(C)CCCCC3)[C@@H]4OC(C)=O)[C@@]2(C)C[C@@H]1[N+]1(C)CCCCC1	0.02
O=C1c2c(O)ccc(O)c2C(=O)c2c(NCCNCCO)ccc(NCCNCCO)c21	0.0448
C[C@H]1[C@H](C)CC[C@]2(C(=O)O)CC[C@]3(C)C(=CC[C@@H]4[C@@]5(C)C[C@@H](O)[C@H](O)[C@@](C)(CO)[C@@H]5[C@H](O)C[C@]43C)[C@H]12	0.103
COc1ccc(-c2coc3cc(O)ccc3c2=O)c(OC)c1	0.263
N[C@@H](Cc1ccc(O)c(O)c1)C(=O)O	0.211
CCSCC[C@H](N)C(=O)O	0.0588
CCC(C)C(NC)C(=O)O (stereo unspecified)	0.286
CN(C)CCc1c[nH]c2ccc(CS(=O)(=O)N3CCCC3)cc12	0.277
O=C(O)c1cc(=O)c2ccccc2[nH]1	0.116

SMILES	fraction of eclosed F1 progeny that are homozygous ATM8
CCCCCCCCCCCC[C@@H](C(=O)O)[C@H](C)C(=O)O	0.25
CSCC[C@H](NC(=O)[C@H](Cc1c[nH]c2ccccc12)NC(=O)CCNC(=O)OC(C)(C)C)C(=O)N[C@@H](CC(=O)O)C(=O)N[C@@H](Cc1ccccc1)C(N)=O	0.0952
CC(C)NNC(=O)c1ccncc1	0.17
O=C1c2cccc(O)c2C(=O)c2c(O)cccc21	0.0833
CCOC(N)=O	0.123
CCN(CC)CCNC(=O)c1cc(Br)c(N)cc1OC	0.244
OC(CCN1CCCCC1)(c1ccccc1)c1ccccc1	0.093
C[C@H]1C(=O)CC[C@@H]2[C@]1(C)CC[C@H]1[C@@]2(C)CC[C@@]2(C)[C@@H]3CC(C)(C)CC[C@]3(C)CC[C@]12C	0.17
CCCCC(=O)N(Cc1ccc(-c2ccccc2-c2nnn[nH]2)cc1)[C@H](C(=O)O)C(C)C	0.205
CC[C@@H](CO)NC(=O)[C@@H]1C=C2c3cccc4c3c(cn4C)C[C@H]2N(C)C1	0.0263
N#C[C@H](O[C@@H]1O[C@H](CO[C@@H]2O[C@H](CO)[C@@H](O)[C@H](O)[C@H]2O)[C@@H](O)[C@H](O)[C@H]1O)c1ccccc1	0.208
O=C(c1ccc(OCCN2CCCCC2)cc1)c1c(-c2ccc(O)cc2)sc2cc(O)ccc12	0.0385
COc1cc2c(c(OC)c1OC)-c1ccc(OC)c(=O)cc1[C@@H](NC(C)=O)CC2	0.111
C=C1[C@H]2CC[C@@]3(C)[C@H](c4ccoc4)OC(=O)C[C@]13O[C@H]1C[C@H](O)C(C)(C)[C@H](CC(=O)OC)[C@]12C [3-DEOXY-3beta-HYDROXYANGOLENSIC ACID METHYL ESTER]	0.132
CC(CN1c2ccccc2Sc2ccccc21)N(C)C (stereo unspecified)	0.196
NS(=O)(=O)c1cc2c(cc1C(F)(F)F)NC(Cc1ccccc1)NS2(=O)=O (stereo unspecified)	0.0797
CC[C@@]1([C@H]2O[C@H]([C@H]3O[C@@](O)(CO)[C@H](C)C[C@@H]3C)C[C@H]2C)CC[C@H]([C@@]2(C)CC[C@]3(C[C@H](O)[C@@H](C)[C@@H]([C@H](C)[C@H](OC)[C@@H](C)C(=O)O)O3)O2)O1	0
CC1(C)S[C@@H]2[C@H](N3C(=O)[C@@H](c4ccccc4)NC3(C)C)C(=O)N2[C@H]1C(=O)O	0.158
CCOC(=O)C1=C(C)NC(C)=C(C(=O)OC)C1c1cccc([N+](=O)[O-])c1 (stereo unspecified)	0.0702
CC(=O)O[C@H]1C[C@@H](OC(C)=O)C(C)(C)C2CC(=O)[C@]3(C)C(CC[C@@]4(C)[C@H](C(=O)O)OC(=O)C5OC543)[C@]21C (stereo partly specified)	0.0862
CCCCCCCCCCCCCCCCC(C(=O)O)C(O)(CC(=O)O)C(=O)O (stereo unspecified)	0.25
COC(=O)c1c(C)cc(OC(=O)c2c(C)cc(O)c(CO)c2O)c(C)c1O	0.25
C[C@]12CC[C@H](O)CC1=CC[C@@H]1[C@@H]2CC[C@]2(C)C(=O)CC[C@@H]12	0.093

SMILES	fraction of eclosed F1 progeny that are homozygous ATM8
CCn1cc(C(=O)O)c(=O)c2cc(F)c(N3CCNCC3)cc21	0.244
O=c1c(O)c(-c2ccc(O)c(O)c2)oc2c(O[C@@H]3O[C@H](CO)[C@@H](O)[C@H](O)[C@H]3O)c(O)cc(O)c12	0.233
COc1ccc(-n2nc(C(N)=O)c3c2C(=O)N(c2ccc(N4CCCCC4=O)cc2)CC3)cc1	0.256
COc1ccc(C(C)=O)c(O)c1	0.0769
CC(=O)Oc1cccc(C(=O)O)c1OC(C)=O	0.0455
COc1c(O)cc2c(c1O)[C@@H]1O[C@H](CO)[C@@H](O)[C@H](O)[C@H]1OC2=O	0.122
CC(C)[C@H]1CC[C@H](C(=O)N[C@H](Cc2ccccc2)C(=O)O)CC1	0.294
COC(=O)/C(=C1/OC(=O)C(c2ccccc2)=C1O)c1ccccc1	0.36
CC1C=CC=CCCC=CC=CC=CC=CC(OC2OC(C)C(O)C(N)C2O)CC2OC(O)(CC(O)C(O)CCC(O)CC(O)CC(O)CC(=O)OC(C)C(C)C1O)CC(O)C2C(=O)O (stereo unspecified)	0.214
COc1ccccc1OCCNCC(O)COc1cccc2[nH]c3ccccc3c12 (stereo unspecified)	0.279 and 0.407
CC(C)c1nc(CN(C)C(=O)N[C@H](C(=O)N[C@@H](Cc2ccccc2)C[C@H](O)[C@H](Cc2ccccc2)NC(=O)OCc2cncs2)C(C)C)cs1	0.0256
CC1CCc2cc(F)cc3c(=O)c(C(=O)O)cn1c23 (stereo unspecified)	0.194
COc1cc2c(cc1OC)-c1c(oc3cc(O)cc(O)c3c1=O)CO2	0.205
CCCCOc1ccc(OCCCN2CCOCC2)cc1	0.194
C[C@@H]1C[C@H](O)[C@@]2(O)[C@]13CC(=O)OC[C@@]2(C)[C@@](C)(O)C(=O)C3	0.104
CC(C)[C@@H]1CC[C@@H](C)C[C@H]1OC(=O)c1ccccc1	0.212
S=P(N1CC1)(N1CC1)N1CC1	0.075
CC(=O)O[C@H]1CC[C@@]2(C)[C@H](CC[C@@H]3[C@@H]2CC[C@]2(C)[C@@H](C4=CC(=O)OC4)[C@@H](OC(C)=O)C[C@]32O)C1	0.0769
CC(=O)O[C@H]1CC[C@]2(C)[C@H]3CC=C4[C@@H]5CC(C)(C)CC[C@]5(C(=O)O)CC[C@@]4(C)[C@]3(C)CC[C@H]2C1(C)C	0.194
CC(C)(C)NCC(O)c1ccc(O)c(CO)c1 (stereo unspecified)	0.0625
O=C([O-])C(O)[C@H](O)[C@@H](O)[C@H](O)[C@H](O)CO.O=C([O-])C(O)[C@H](O)[C@@H](O)[C@H](O)[C@H](O)CO.[Ca+2] (stereo partly specified)	0.154
O=C(/C=C/c1ccccc1)c1ccc(O)cc1O	0.286
